The target of assay [1] is NSD2, expressed from a plasmid (UniProt Q8BVE8). In words: co-IP; intact or truncated PP2Cδ constructs expressed from plasmids, NSD2; cells not given.
In assay [2] the target is methyltransferase NSD2 (mouse (endogenous in BMDCs)) (UniProt Q8BVE8). In words: co-IP; endogenous proteins in lysate of WT mouse BMDCs; NP-40 lysis buffer, Dynabeads pre-coupled with 3 ug antibody, 1 h at room temperature; PP2Cδ^-/- DCs as control.
The target of assay [3] is NSD2, expressed from a plasmid (UniProt Q8BVE8). Kind of assay: co-IP; 293T cells transfected with PP2Cδ- and NSD2-expressing plasmids; NP-40 lysis buffer, Dynabeads pre-coupled with antibody.

Amino acid sequences for entries named in this document (tags omitted).
UniProt Q8BVE8: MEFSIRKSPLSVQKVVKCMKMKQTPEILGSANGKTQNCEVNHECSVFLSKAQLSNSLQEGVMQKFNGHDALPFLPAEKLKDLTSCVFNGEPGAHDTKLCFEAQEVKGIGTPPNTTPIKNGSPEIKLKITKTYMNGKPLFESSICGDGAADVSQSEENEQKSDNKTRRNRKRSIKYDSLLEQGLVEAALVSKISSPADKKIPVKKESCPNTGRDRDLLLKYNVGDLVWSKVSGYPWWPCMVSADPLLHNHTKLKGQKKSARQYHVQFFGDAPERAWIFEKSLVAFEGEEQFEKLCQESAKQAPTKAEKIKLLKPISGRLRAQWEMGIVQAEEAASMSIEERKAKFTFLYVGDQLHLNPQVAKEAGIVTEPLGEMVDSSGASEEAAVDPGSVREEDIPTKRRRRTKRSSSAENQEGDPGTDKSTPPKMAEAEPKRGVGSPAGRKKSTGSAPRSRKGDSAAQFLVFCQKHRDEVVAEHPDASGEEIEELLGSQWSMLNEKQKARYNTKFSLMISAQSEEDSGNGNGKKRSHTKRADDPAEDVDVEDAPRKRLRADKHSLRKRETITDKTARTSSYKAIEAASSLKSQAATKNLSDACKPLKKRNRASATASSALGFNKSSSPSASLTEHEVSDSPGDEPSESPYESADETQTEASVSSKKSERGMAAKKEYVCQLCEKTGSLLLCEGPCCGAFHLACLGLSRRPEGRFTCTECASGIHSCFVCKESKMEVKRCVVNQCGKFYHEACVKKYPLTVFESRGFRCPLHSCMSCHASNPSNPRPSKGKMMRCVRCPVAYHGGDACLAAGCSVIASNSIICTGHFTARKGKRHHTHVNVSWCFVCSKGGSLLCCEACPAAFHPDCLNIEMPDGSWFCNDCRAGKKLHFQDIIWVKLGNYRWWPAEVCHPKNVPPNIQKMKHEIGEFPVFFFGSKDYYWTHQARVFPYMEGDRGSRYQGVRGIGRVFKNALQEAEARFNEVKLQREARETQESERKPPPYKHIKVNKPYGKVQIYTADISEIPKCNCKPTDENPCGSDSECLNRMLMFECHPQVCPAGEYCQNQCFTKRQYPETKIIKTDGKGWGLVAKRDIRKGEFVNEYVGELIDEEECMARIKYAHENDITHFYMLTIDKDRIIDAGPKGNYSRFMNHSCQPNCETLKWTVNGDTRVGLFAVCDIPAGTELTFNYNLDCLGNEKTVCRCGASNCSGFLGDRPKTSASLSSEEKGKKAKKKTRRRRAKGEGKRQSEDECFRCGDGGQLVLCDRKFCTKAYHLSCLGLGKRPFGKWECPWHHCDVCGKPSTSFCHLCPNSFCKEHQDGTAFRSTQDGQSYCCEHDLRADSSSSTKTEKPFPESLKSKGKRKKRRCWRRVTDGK

Results are given in words; binding and its absence hold for the method and conditions named. In cells and extracts the contact can be indirect. Some entries that bind do so weakly or less than the wild type.

The text below walks through data of PMC8777276.

B1: PP2Cδ truncate lacking B domain (Δ77-361) (domain or fragment, UniProt Q9QZ67)
chain: MAGLYSLGVSVFSDQGGRKYMEDVTQIVVEPEPAAEDKPAPVPRRALGLPATPTLAGVGPSEKGPAAARDPAPDAASAIVICISPEVDNQGNFTNEDELFLNLTDSPTYNSQETCVMTSSPSSTPPIKSPEEDAWPRLSSKDHIPALVRSNAFSEKFLEVPAEIARGNIQTVVMTSKDSETLEENCPKALTLRIHDSLNNTLSVGLIPTNSTNTIMDQKNLKMSTPGQMKAQEVERTPPANFKRTLEESNSGPLMKKHRRNGLSRSSGAQASSLPTASQRRHSVKLTLRRRLRGQRKMGNPLLHQHRKTVCVC
For the molecule B1, the binding entry in assay [1] was “binds”.

B2: Protein phosphatase 2C delta (PP2Cδ) (enzyme, UniProt Q9QZ67 1-598)
chain: MAGLYSLGVSVFSDQGGRKYMEDVTQIVVEPEPAAEDKPAPVPRRALGLPATPTLAGVGPSEKGPAAARDPAPDAAASLPAGRCCRRRSSVAFFAVCDGHGGREAAQFAREHLWGFIKKQKGFTSSEPAKVCAAIRKGFLACHLAMWKKLAEWPKTMTGLPSTSGTTASVVIIRGMKMYVAHVGDSGVVLGIQDDPKDDFVRAVEVTQDHKPELPKERERIEGLGGSVMNKSGVNRVVWKRPRLTHSGPVRRSTVIDQIPFLAVARALGDLWSYDFFSGKFVVSPEPDTSVHTLDPRKHKYIILGSDGLWNMVPPQDAISMCQDQEEKKYLMGEQGQSCAKMLVNRALGRWRQRMLRADNTSAIVICISPEVDNQGNFTNEDELFLNLTDSPTYNSQETCVMTSSPSSTPPIKSPEEDAWPRLSSKDHIPALVRSNAFSEKFLEVPAEIARGNIQTVVMTSKDSETLEENCPKALTLRIHDSLNNTLSVGLIPTNSTNTIMDQKNLKMSTPGQMKAQEVERTPPANFKRTLEESNSGPLMKKHRRNGLSRSSGAQASSLPTASQRRHSVKLTLRRRLRGQRKMGNPLLHQHRKTVCVC
As for B2, the binding entry in assay [2] is “binds”.

B3: PP2Cδ, full-length (intact) construct (enzyme, UniProt Q9QZ67 1-598)
chain: MAGLYSLGVSVFSDQGGRKYMEDVTQIVVEPEPAAEDKPAPVPRRALGLPATPTLAGVGPSEKGPAAARDPAPDAAASLPAGRCCRRRSSVAFFAVCDGHGGREAAQFAREHLWGFIKKQKGFTSSEPAKVCAAIRKGFLACHLAMWKKLAEWPKTMTGLPSTSGTTASVVIIRGMKMYVAHVGDSGVVLGIQDDPKDDFVRAVEVTQDHKPELPKERERIEGLGGSVMNKSGVNRVVWKRPRLTHSGPVRRSTVIDQIPFLAVARALGDLWSYDFFSGKFVVSPEPDTSVHTLDPRKHKYIILGSDGLWNMVPPQDAISMCQDQEEKKYLMGEQGQSCAKMLVNRALGRWRQRMLRADNTSAIVICISPEVDNQGNFTNEDELFLNLTDSPTYNSQETCVMTSSPSSTPPIKSPEEDAWPRLSSKDHIPALVRSNAFSEKFLEVPAEIARGNIQTVVMTSKDSETLEENCPKALTLRIHDSLNNTLSVGLIPTNSTNTIMDQKNLKMSTPGQMKAQEVERTPPANFKRTLEESNSGPLMKKHRRNGLSRSSGAQASSLPTASQRRHSVKLTLRRRLRGQRKMGNPLLHQHRKTVCVC
On to B3, for which the binding result in assay [3] and in assay [1] was “binds” in each case.
